Experimental data: patent WO2021084104A1
No constants are given. Whether binding was seen depends on the method and setting. A result given as binding can be weak or reduced; the word gives no strength.

Experiments:
[1] = biological target: CD40 extracellular domain (amino acids 1-193) with 8x His-tag (human); assay: Biacore, IgG captured, antigens at 800 nM (Fig. 9 A and B)
[2] = biological target: OX40 extracellular domain (amino acids 1-216) with 8x His-tag (human); assay: as above
[3] = biological target: CD40 extracellular domain (amino acids 1-193) with 8x His-tag (human); assay: ELISA on recombinant protein (Fig. 7)
[4] = biological target: OX40 extracellular domain (amino acids 1-216) with 8x His-tag (human); assay: ELISA on recombinant protein (Fig. 7)
[5] = biological target: CD40 extracellular domain (amino acids 1-193) with 8x His-tag (human); assay: ELISA after incubation in 50% human serum at +37°C for up to 7 days
[6] = biological target: OX40 extracellular domain (amino acids 1-216) with 8x His-tag (human); assay: as above
[7] = biological target: CD40 extracellular domain (amino acids 1-193) with 8x His-tag (human); assay: ELISA on recombinant protein (Fig. 6A)
[8] = biological target: OX40 extracellular domain (amino acids 1-216) with 8x His-tag (human); assay: ELISA on recombinant protein (Fig. 6A)
[9] = biological target: CD40 extracellular domain (amino acids 1-193) with 8x His-tag (human); assay: ELISA, IgG captured on anti-human-Fc, non-biotinylated antigen titrated from 400 nM, biotinylated antigen detected (Fig. 8 A)
[10] = biological target: OX40 extracellular domain (amino acids 1-216) with 8x His-tag (human); assay: as above
[11] = biological target: CD40 extracellular domain (amino acids 1-193) with 8x His-tag (human); assay: ELISA on recombinant protein
[12] = biological target: OX40 extracellular domain (amino acids 1-216) with 8x His-tag (human); assay: ELISA on recombinant protein
[13] = biological target: OX40 extracellular domain (amino acids 1-216) with 8x His-tag (human); assay: dose response ELISA on recombinant protein after incubation in 50% human serum (Fig. 15 B)
[14] = biological target: CD40 extracellular domain (amino acids 1-193) with 8x His-tag (human); assay: dose response ELISA on recombinant protein after incubation in 50% human serum (Fig. 15 A)
[15] = biological target: CD40 extracellular domain (amino acids 1-193) with 8x His-tag (human); assay: Biacore, IgG captured on anti-human IgG, sequential antigen additions at 800 nM
[16] = biological target: OX40 extracellular domain (amino acids 1-216) with 8x His-tag (human); assay: as above
[17] = biological target: 4-1BB extracellular domain (amino acids 1-186) with 8x His-tag (human); assay: ELISA after incubation in 50% human serum at +37°C for up to 7 days
[18] = biological target: CD40 extracellular domain (amino acids 1-193) with 8x His-tag (human); assay: dose response ELISA on recombinant protein after incubation in 50% human serum (Fig. 15 C)
[19] = biological target: CD40 extracellular domain (amino acids 1-193) with 8x His-tag (human); assay: Biacore, IgG captured, antigens at 800 nM (Fig. 9 C and D)
[20] = biological target: 4-1BB extracellular domain (amino acids 1-186) with 8x His-tag (human); assay: as above
[21] = biological target: 4-1BB extracellular domain (amino acids 1-186) with 8x His-tag (human); assay: dose response ELISA on recombinant protein after incubation in 50% human serum (Fig. 15 D)
[22] = biological target: 4-1BB extracellular domain (amino acids 1-186) with 8x His-tag (human); assay: Biacore, IgG captured on anti-human IgG, sequential antigen additions at 800 nM
[23] = biological target: OX40 extracellular domain (amino acids 1-216) with 8x His-tag (human); assay: dose response ELISA on recombinant protein after incubation in 50% human serum (Fig. 15 E)
[24] = biological target: 4-1BB extracellular domain (amino acids 1-186) with 8x His-tag (human); assay: ELISA on recombinant protein (Fig. 6C)
[25] = biological target: OX40 extracellular domain (amino acids 1-216) with 8x His-tag (human); assay: ELISA on recombinant protein (Fig. 6C)
[26] = biological target: 4-1BB extracellular domain (amino acids 1-186) with 8x His-tag (human); assay: ELISA on recombinant protein
[27] = biological target: 4-1BB extracellular domain (amino acids 1-186) with 8x His-tag (human); assay: Biacore, IgG captured, antigens at 800 nM (Fig. 9 E and F)
[28] = biological target: OX40 extracellular domain (amino acids 1-216) with 8x His-tag (human); assay: as above
[29] = biological target: 4-1BB extracellular domain (amino acids 1-186) with 8x His-tag (human); assay: dose response ELISA on recombinant protein after incubation in 50% human serum (Fig. 15 F)
[30] = biological target: CD40 extracellular domain (amino acids 1-193) with 8x His-tag (human); assay: ELISA on recombinant protein (Fig. 6B)
[31] = biological target: 4-1BB extracellular domain (amino acids 1-186) with 8x His-tag (human); assay: ELISA on recombinant protein (Fig. 6B)
[32] = biological target: CD40 extracellular domain (amino acids 1-193) with 8x His-tag (human); assay: ELISA, IgG captured on anti-human-Fc, non-biotinylated antigen titrated, biotinylated antigen detected
[33] = biological target: 4-1BB extracellular domain (amino acids 1-186) with 8x His-tag (human); assay: as above
[34] = biological target: OX40 extracellular domain (amino acids 1-216) with 8x His-tag (human); assay: as above

Measured: binding

B1: tetra VH IgG #2 (VH-CH1=OX40 #2, VH-CL=CD40 #5) (bispecific antibody, V domains shown, not shown: a dimerising Fc or GST)
V domain 1: EVQLLESGGGLVQPGGSLRLSCAASGFTFSSYAMSWVRQAPGKGLEWVSGVSGGGGSTYYADSVRGRFTISRDNSKNTLYLQMNSLRAEDTAVYYCARGWDDINVWGQGTLVTVSS
V domain 2: EVQLLESGGGLVQPGGSLRLSCAASGFTFSSYTMDWVRQAPGKGLEWVSSISESGDTTDYADSVKGRFTISRDNSKNTLYLQMNSLRAEDTAVYYCARCSGGSCYSVNWGQGTLVTVSS
binds: [1] | [2] | [3] | [4] | [5] | [6] | [7] | [8] | [9] | [10] | [11] | [12] | [13] | [14] | [15] | [16]

B2: tetra-VH IgG #19 (VH-CH1=41BB #4, VH-CL=CD40 #5) (bispecific antibody, V domains shown, not shown: a dimerising Fc or GST)
V domain 1: EVQLLESGGGLVQPGGSLRLSCAASGFTFGDYAMSWFRQAPGKGLEWVAVLSYDGSNTDYADSVKGRFTISRDNSKNTLYLQMNSLRAEDTAVYYCAKGPLILAAGNYWGQGTLVTVSS
V domain 2: EVQLLESGGGLVQPGGSLRLSCAASGFTFSSYTMDWVRQAPGKGLEWVSSISESGDTTDYADSVKGRFTISRDNSKNTLYLQMNSLRAEDTAVYYCARCSGGSCYSVNWGQGTLVTVSS
binds: [5] | [17] | [18] | [19] | [20] | [21] | [15] | [22]

B3: tetra VH IgG #20 (VH-CH1=41BB #4, VH-CL=OX40 #2) (bispecific antibody, V domains shown, not shown: a dimerising Fc or GST)
V domain 1: EVQLLESGGGLVQPGGSLRLSCAASGFTFGDYAMSWFRQAPGKGLEWVAVLSYDGSNTDYADSVKGRFTISRDNSKNTLYLQMNSLRAEDTAVYYCAKGPLILAAGNYWGQGTLVTVSS
V domain 2: EVQLLESGGGLVQPGGSLRLSCAASGFTFSSYAMSWVRQAPGKGLEWVSGVSGGGGSTYYADSVRGRFTISRDNSKNTLYLQMNSLRAEDTAVYYCARGWDDINVWGQGTLVTVSS
binds: [23] | [24] | [25] | [17] | [6] | [26] | [12] | [27] | [28] | [22] | [16] | [29]

B4: tetra VH IgG #4 (VH-CH1=41BB #4, VH-CL=CD40 #3) (bispecific antibody, V domains shown, not shown: a dimerising Fc or GST)
V domain 1: EVQLLESGGGLVQPGGSLRLSCAASGFTFGDYAMSWFRQAPGKGLEWVAVLSYDGSNTDYADSVKGRFTISRDNSKNTLYLQMNSLRAEDTAVYYCAKGPLILAAGNYWGQGTLVTVSS
V domain 2: EVQLLESGGGLVQPGGSLRLSCAASGFTFSSYAMSWVRQAPGKGLEWVSRLNSDGITATYADSVKGRFTISRDNSKNTLYLQMNSLRAEDTAVYYCARGKIPAIDHWGQGTLVTVSS
binds: [30] | [31] | [32] | [33] | [11] | [26]

B5: tetra VH IgG #5 (VH-CH1=CD40 #5, VH-CL=OX40 #2) (bispecific antibody, V domains shown, not shown: a dimerising Fc or GST)
V domain 1: EVQLLESGGGLVQPGGSLRLSCAASGFTFSSYTMDWVRQAPGKGLEWVSSISESGDTTDYADSVKGRFTISRDNSKNTLYLQMNSLRAEDTAVYYCARCSGGSCYSVNWGQGTLVTVSS
V domain 2: EVQLLESGGGLVQPGGSLRLSCAASGFTFSSYAMSWVRQAPGKGLEWVSGVSGGGGSTYYADSVRGRFTISRDNSKNTLYLQMNSLRAEDTAVYYCARGWDDINVWGQGTLVTVSS
binds: [3] | [4] | [11] | [12]

B6: tetra VH IgG #3 (VH-CH1=41BB #2, VH-CL=OX40 #2) (bispecific antibody, V domains shown, not shown: a dimerising Fc or GST)
V domain 1: EVQLLESGGGLVQPGGSLRLSCAASGFTFGDYAMSWFRQAPGKGLEWVAVISDDGSNKYYADSVMGRFTISRDNSKNTLYLQMNSLRAEDTAMYYCAGHYDYVWGSFRYGAFDIWGQGTLVTVSS
V domain 2: EVQLLESGGGLVQPGGSLRLSCAASGFTFSSYAMSWVRQAPGKGLEWVSGVSGGGGSTYYADSVRGRFTISRDNSKNTLYLQMNSLRAEDTAVYYCARGWDDINVWGQGTLVTVSS
binds: [33] | [34]
